The target of the assay is methyltransferase-like 3 (METTL3) (human (endogenous in MHCC97H and HCCLM3)) (UniProt Q86U44). Put plainly: co-IP; Co-IP of STAT3 and METTL3 (Fig. S2D, E); cells and precipitated protein not told in the text shown.

Chains of the proteins cited; added tags and fusions are not shown.
UniProt Q86U44: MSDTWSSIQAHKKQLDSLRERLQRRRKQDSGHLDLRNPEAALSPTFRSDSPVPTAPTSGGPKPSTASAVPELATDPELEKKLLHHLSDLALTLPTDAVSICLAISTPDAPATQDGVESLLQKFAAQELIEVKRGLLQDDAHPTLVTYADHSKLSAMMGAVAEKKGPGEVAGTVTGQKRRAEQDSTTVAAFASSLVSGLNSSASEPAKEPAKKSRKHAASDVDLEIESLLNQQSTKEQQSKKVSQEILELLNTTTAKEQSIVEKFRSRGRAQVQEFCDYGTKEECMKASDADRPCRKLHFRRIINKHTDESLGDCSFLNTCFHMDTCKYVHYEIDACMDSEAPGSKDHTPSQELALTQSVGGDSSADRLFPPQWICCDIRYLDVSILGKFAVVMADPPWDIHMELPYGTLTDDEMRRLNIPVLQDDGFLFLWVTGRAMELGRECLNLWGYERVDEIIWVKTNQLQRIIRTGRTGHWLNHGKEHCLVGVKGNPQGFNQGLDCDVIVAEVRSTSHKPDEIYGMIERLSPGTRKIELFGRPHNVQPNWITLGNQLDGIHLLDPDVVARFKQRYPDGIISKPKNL
UniProt P40763: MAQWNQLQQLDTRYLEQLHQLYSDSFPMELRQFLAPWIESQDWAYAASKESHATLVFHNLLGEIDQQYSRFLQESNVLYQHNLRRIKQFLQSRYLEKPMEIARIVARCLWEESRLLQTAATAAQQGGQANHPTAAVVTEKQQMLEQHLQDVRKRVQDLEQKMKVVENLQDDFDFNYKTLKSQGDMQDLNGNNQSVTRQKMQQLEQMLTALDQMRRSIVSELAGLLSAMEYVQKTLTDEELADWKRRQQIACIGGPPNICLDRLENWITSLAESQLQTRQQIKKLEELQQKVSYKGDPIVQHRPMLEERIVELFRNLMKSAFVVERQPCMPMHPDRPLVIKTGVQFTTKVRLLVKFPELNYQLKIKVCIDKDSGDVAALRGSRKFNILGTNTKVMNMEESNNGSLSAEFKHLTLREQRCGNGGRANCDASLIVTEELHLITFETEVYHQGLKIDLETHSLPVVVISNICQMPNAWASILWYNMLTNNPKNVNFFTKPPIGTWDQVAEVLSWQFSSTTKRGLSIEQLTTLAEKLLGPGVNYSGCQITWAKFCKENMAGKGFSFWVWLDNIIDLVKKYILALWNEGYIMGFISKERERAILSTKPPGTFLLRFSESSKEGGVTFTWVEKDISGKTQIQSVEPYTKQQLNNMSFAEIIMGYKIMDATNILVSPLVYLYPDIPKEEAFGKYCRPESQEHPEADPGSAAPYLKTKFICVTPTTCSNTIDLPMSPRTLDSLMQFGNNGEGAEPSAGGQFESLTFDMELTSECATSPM

These are yes or no findings as the source states them, for the method shown. In cells and extracts the contact can be indirect.

“signal transducer and activator of transcription 3 (STAT3) (from UniProt P40763 1-770)”: the binding result is recorded as “no binding”.

For the origin of these results see PMC10210303.
